Source: article PMC8448735
No constants are given. Whether binding was seen depends on the method and setting. Binding seen in cells or lysates may run through a third protein. Some entries that bind do so weakly or less than the wild type. Where a sequence is shown, tags or fusion partners need not be part of it.

T1: HA-mTPP1 (mouse) (UniProt Q5EE38)
T1 sequence: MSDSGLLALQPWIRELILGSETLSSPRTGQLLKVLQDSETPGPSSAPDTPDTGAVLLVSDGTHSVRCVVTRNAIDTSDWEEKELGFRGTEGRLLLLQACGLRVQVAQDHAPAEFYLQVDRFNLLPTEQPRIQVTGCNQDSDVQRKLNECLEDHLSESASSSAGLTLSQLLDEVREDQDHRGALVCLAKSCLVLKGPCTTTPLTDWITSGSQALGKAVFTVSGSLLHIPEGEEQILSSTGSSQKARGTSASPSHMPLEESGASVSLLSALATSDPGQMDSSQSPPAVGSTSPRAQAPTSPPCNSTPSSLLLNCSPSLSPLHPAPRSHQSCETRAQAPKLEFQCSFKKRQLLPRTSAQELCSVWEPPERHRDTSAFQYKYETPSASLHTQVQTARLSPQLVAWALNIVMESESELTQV


Target: T1, HA-mTPP1 (mouse)
Experiment: co-IP; 293T cells co-transfected with WT or mutant Myc-POT1a or Flag-POT1b and HA-mTPP1; lysates in TEB150 buffer (50 mM Hepes pH7.3, 150 mM NaCl, 2 mM MgCl2, 5 mM EGTA, 0.5% Triton-X-100, 10% Glycerol, proteinase inhibitors) for 6 h at 4 °C with anti-Tag antibody cross-linked agarose beads; eluate analysed by immunoblotting

Row | binding | Binder
1 | binds | Myc-POT1a^WT (protein, UniProt Q91WC1 1-640) MSLVSTAPYTYTPLNLLKEGTIANVYGVVKFFKPPYVSKGTDYCSVVTIVDQTNVKLTCMLFSGNYEALPIIYKVGDIVRFHRLKIQVYKNELQGINCSGFASLTFEGTVGMPVTARTSSKVFSFTPQDQKMVEALRVWASKHISASSTLVQLCDAQPMQYYDLTCQLLGKAQVDSTAFLLKVWDGTQTVLPSWRVSTQDLTFEGDLSHIERLQSLVVDILVYDNHVQVARSIEVGCFLRLYSLHTKLQPGNSETSSSESLRLEFHLHGGTSYGRGIRVLPDTSPCVDQLKKALEGANLPVTETSTGICQSENGDSSALSNSGSGAVSPYEEERCQQVSATILTNHQHLEKTPLCAILTQKAPQQYRVRAKLRSYLPRRLSQSVKLLCPKCHSVQEVPHGDSLDKILQDAATEAPDIKLKATSLYYSKVWTTEDQGGRQVAVHFVKNNGILPASSECLILIEGGRLCEVSKLSSKFHSVMPVRSGPESLELLTLSAPFLIQGKVHHYGCKQCSSLKPIQNLNSRFHKGPWTPSSVAEALGVVPLQYVFVMVFTLDDGTGVLEAYLKDSEHFFKIPASEVLTDDDLQRSLETIMDMICPPGIKVDAYPWLECLLKSYNVTIGTERRICYQIFDTTVAENVV
2 | binds | Myc-POT1a^DDE (protein, UniProt Q91WC1 1-640) MSLVSTAPYTYTPLNLLKEGTIANVYGVVKFFKPPYVSKGTDYCSVVTIVDQTNVKLTCMLFSGNYEALPIIYKVGDIVRFHRLKIQVYKNELQGINCSGFASLTFEGTVGMPVTARTSSKVFSFTPQDQKMVEALRVWASKHISASSTLVQLCDAQPMQYYDLTCQLLGKAQVDSTAFLLKVWDGTQTVLPSWRVSTQDLTFEGDLSHIERLQSLVVDILVYDNHVQVARSIEVGCFLRLYSLHTKLQPGNSETSSSESLRLEFHLHGGTSYGRGIRVLPDTSPCVDQLKKALEGANLPVTETSTGICQSENGDSSALSNSGSGAVSPYEEERCQQVSATILTNHQHLEKTPLCAILTQKAPQQYRVRAKLRSYLPRRLSQSVKLLCPKCHSVQEVPHGDSLDKILQDAATEAPDIKLKDTSLYDSEVWTTEDQGGRQVAVHFVKNNGILPASSECLILIEGGRLCEVSKLSSKFHSVMPVRSGPESLELLTLSAPFLIQGKVHHYGCKQCSSLKPIQNLNSRFHKGPWTPSSVAEALGVVPLQYVFVMVFTLDDGTGVLEAYLKDSEHFFKIPASEVLTDDDLQRSLETIMDMICPPGIKVDAYPWLECLLKSYNVTIGTERRICYQIFDTTVAENVV
